Test results published in PubChem BioAssay AID2685 (National Center for Advancing Translational Sciences (NCATS), 2010).
Some of the results follow. The main result of the screen is listed elsewhere. These columns were measured beside it and carry no call. Most of these compounds were active or inconclusive in the main read-out, so they are no random draw. Potencies come from curve fits of mixed quality, noted in brackets.

Assay: qHTS Assay for Lipid Storage Modulators in Drosophila S3 Cells;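 for cell number change: cells counted by Cell Tracker Red CMTPX staining in the red channel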
Conditions: BODIPY lipid droplet fluorescence, 18-24 h; for cell number change: measured here: cell count max response, cells fed with added oleic acid
Outline: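 Drosophila S3 cells got compounds at several concentrations plus oleic acid (400 uM solution). Laser-scanning cytometry with 488 nm excitation read lipid droplets at 500-530 nm and cells at 575-640 nm. Percent activity was relative to 20 uM Triacsin C.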

[1] = measured here: lipid fluorescence (Fed channel) AC50, cells fed with added oleic acid
[2] = measured here: cell number channel AC50, cells fed with added oleic acid

With `CCN1CCN(CCC(=O)Nc2cccc(C)c2)CC1` the cell number change was 6.71% and the AC50 [1] was 3.66 µM [falling, single point].
For `Cc1ccc(C)c(N2CCN(C(=O)CCCCCn3c(=S)[nH]c4ccc(N5CCOCC5)cc4c3=O)CC2)c1`, the cell number change was -31.1%, the AC50 [2] was 7.31 µM [falling, partial curve] and the AC50 [1] was 14.6 µM [falling, partial curve].
`Cc1cc(C(=O)NCCN2C(=O)S/C(=C\c3cccs3)C2=O)ccc1[N+](=O)[O-]` gave a cell number change of 1.96%.
With `CC(NC(=O)CN(C)S(=O)(=O)c1ccc2c(c1)c(=O)n(C)c(=O)n2C)c1ccccc1` (configuration not stated) the cell number change was -16.8% and the AC50 [1] was 0.651 µM [falling, full curve].
For `CCC(C)NCCOc1ccccc1C` (configuration not stated), the cell number change was 26.7% and the AC50 [2] was 0.231 µM [rising, full curve, poor fit].
With `O=C(CN1C(=O)NC(c2ccccc2)(c2ccccc2)C1=O)NCC(=O)Nc1ccc(F)cc1` the cell number change was 6.96% and the AC50 [1] was 3.26 µM [rising, partial curve, poor fit].
In the case of `Cc1nn(-c2ccccc2)nc1C(=O)OCC(=O)N1CCC(C)CC1`, the cell number change is reported as -26.8% and the AC50 [1] is reported as 3.66 µM [falling, single point].
In the case of `COc1ccc(C(C(=O)NC2CCCCC2)N(C(=O)c2ccccn2)c2cccnc2)c(OC)c1` (configuration not stated), the cell number change is reported as 17.4%.
In the case of `COc1ccc(CCNC(=O)c2coc3ccccc3c2=O)cc1OC`, the cell number change is reported as -12.5%, the AC50 [2] is reported as 0.00461 µM [falling, full curve, poor fit] and the AC50 [1] is reported as 0.58 µM [falling, single point].
For `CC(C)(C)NC(=O)CSc1nc(-c2ccc(F)cc2)cs1`, the cell number change was 17.5% and the AC50 [1] was 29.1 µM [rising, single point].
For `O=C1c2ccc(-c3ccc4c(c3)C(=O)N(CCCO)C4=O)cc2C(=O)N1CCCO`, the cell number change was -58% and the AC50 [2] was 5.17 µM [falling, full curve, poor fit].
With `Cc1ccc2c(c1)sc(=NC(=O)c1cccs1)n2C` the cell number change was 57.1%, the AC50 [2] was 0.13 µM [rising, full curve, poor fit] and the AC50 [1] was 0.0291 µM [rising, full curve].
For `CCCCn1c(C)cc(/C=C(\C#N)C(=O)O)c1C`, the cell number change was 41.8%, the AC50 [2] was 8.2 µM [rising, partial curve] and the AC50 [1] was 0.58 µM [falling, full curve, poor fit].
With `O=C(COc1ccc(S(=O)(=O)N2CCCCC2)cc1)N1CCOCC1` the cell number change was -17.8%.
With `O=C(CN1C(=O)c2cccc3cccc1c23)NC1CCCCC1` the cell number change was 11.5% and the AC50 [1] was 0.0731 µM [falling, partial curve, poor fit].
In the case of `CC(C)(C)c1nc(NC(=O)Nc2ccccc2)sc1Br`, the cell number change is reported as -62.6% and the AC50 [2] is reported as 11.2 µM [falling, single point].
`Cc1ccc(-n2c(C)nn(CCOc3ccccc3)c2=O)cc1` showed a cell number change of -46.7%.
In the case of `CC1CCN(C(=O)CCNC(=O)Cn2cnc3sc4c(c3c2=O)CCCC4)CC1`, the cell number change is reported as 55.7% and the AC50 [2] is reported as 3.66 µM [falling, single point].
In the case of `CCOC(=O)C1CCN(C(=O)CCCOc2ccccc2)CC1`, the cell number change is reported as 11% and the AC50 [1] is reported as 29.1 µM [falling, partial curve].
For `CCCCCCNC(=O)CCc1nc2cccnc2n1Cc1ccc(OC)cc1`, the cell number change was 20.2% and the AC50 [1] was 29.1 µM [falling, single point].
For `OC(CN1CCOCC1)(c1ccccc1)c1ccccn1` (configuration not stated), the AC50 [2] was 0.0058 µM [rising, full curve, poor fit].
For `O=C(NCC(c1ccco1)N1CCN(c2ccccc2F)CC1)c1cccs1` (configuration not stated), the cell number change was 49.2%, the AC50 [2] was 29.1 µM [rising, single point] and the AC50 [1] was 5.17 µM [rising, partial curve].
In the case of `O=C(CN1C(=O)C2(OCCCO2)c2ccccc21)NCCc1ccccc1`, the cell number change is reported as -39.5%, the AC50 [2] is reported as 0.00366 µM [falling, full curve, poor fit] and the AC50 [1] is reported as 13 µM [falling, partial curve].
For `CCc1nnc(NC(=O)CSc2nc3c(c(=O)n2CC)SC(C)C3)s1` (configuration not stated), the AC50 [1] was 0.731 µM [rising, single point].
With `O=[N+]([O-])c1cc(/C=N/N2CCCCC2)ccc1Cl` the AC50 [2] was 2.59 µM [rising, single point] and the AC50 [1] was 2.31 µM [rising, single point].
For `COc1ccc(/C=N/N=C2\SCC(=O)N2c2c(C)n(C)n(-c3ccccc3)c2=O)cc1OC`, the cell number change was 12.4% and the AC50 [1] was 3.26 µM [falling, single point].
For `Cn1c(C(=O)O)c(S(=O)(=O)c2ccc(Cl)cc2)c2ccccc21`, the cell number change was 22.5%, the AC50 [2] was 0.0651 µM [rising, full curve, poor fit] and the AC50 [1] was 0.082 µM [rising, full curve, poor fit].
For `CCOc1ccccc1NC1=NCC(=O)N1Cc1ccc(F)cc1`, the cell number change was -16.2% and the AC50 [1] was 29.1 µM [rising, single point].
With `CCn1c(COc2ccc(Cl)cc2)nnc1SC1CCc2ccccc2C1=O` (configuration not stated) the cell number change was 21.8% and the AC50 [1] was 0.0326 µM [rising, full curve, poor fit].
With `O=C(c1ccco1)N1CCN(c2ncnc3c2[nH]c2ccc(Br)cc23)CC1` the cell number change was 91.5%, the AC50 [2] was 0.411 µM [rising, full curve] and the AC50 [1] was 0.231 µM [rising, partial curve, poor fit].
With `CCOC(=O)C1CCCN(C(=O)c2cc(Cl)ccc2NC(=O)C2=C(C)OCCS2)C1` (configuration not stated) the cell number change was 19.1% and the AC50 [1] was 6.51 µM [falling, single point].
In the case of `O=C(N/N=C/C=C/c1ccc(Br)cc1)C(O)c1ccccc1` (configuration not stated), the cell number change is reported as 66.4% and the AC50 [2] is reported as 29.1 µM [rising, single point].
In the case of `COc1cc(C(=O)OCC(=O)N2c3ccccc3NC(=O)C2(C)C)ccc1OCC(C)C`, the cell number change is reported as 1.41% and the AC50 [1] is reported as 8.2 µM [falling, partial curve].
For `O=C(NCCCN1CCOCC1)c1ccc2c(=O)n(Cc3ccc(Cl)cc3)c(=S)[nH]c2c1`, the cell number change was -2.99%.
With `Cc1cc(NCC2CCCO2)n2c(nc3ccccc32)c1C#N` (configuration not stated) the cell number change was -18.3% and the AC50 [1] was 2.31 µM [falling, single point].
For `Cc1ccc(N2C(=O)N(CC(=O)NCc3ccccc3Cl)C(=O)C2C)cc1` (configuration not stated), the cell number change was -10.7%.
In the case of `CCn1nc(C)cc1C(=O)Sc1ccc(Cl)cc1Cl`, the cell number change is reported as -12.6%, the AC50 [2] is reported as 0.82 µM [rising, single point] and the AC50 [1] is reported as 0.103 µM [falling, full curve, poor fit].
With `CCOC(=O)C1CCN(C(=O)C2(NC(=O)Nc3ccccc3C)CCCCC2)CC1` the cell number change was 7.21% and the AC50 [1] was 4.11 µM [falling, full curve].
Work on `Cn1c(=O)[nH]c(=O)c2c1nc(SCC(=O)O)n2Cc1ccccc1` yielded a cell number change of 4.2%.
`CCOC(=O)C(NC(C)=O)C(OC(C)=O)c1cccc(N(CCO)CCO)c1` (configuration not stated) gave a cell number change of 4.89%.
For `O=C1CCN(CCc2ccccc2)CCN1[C@H](CSc1ccccc1)Cc1ccccc1`, the cell number change was 7.19% and the AC50 [1] was 6.51 µM [rising, partial curve].
For `COc1ccc(C(=O)N(CCc2ccccc2)Cc2cccs2)c(OC)c1`, the AC50 [1] was 14.6 µM [falling, partial curve].
With `O=C(NC1CCCCC1)C(c1ccccc1)N(C(=O)c1csnn1)C1CC1` (configuration not stated) the cell number change was 0.806% and the AC50 [1] was 4.11 µM [falling, full curve].
For `CCCCC[C@H]1CN(Cc2ccc(OC)cc2)C(=O)[C@@H]1CC(=O)NCc1ccccc1`, the cell number change was -14.7% and the AC50 [1] was 29.1 µM [falling, single point].
In the case of `COc1ccc(OCc2cc(C(=O)NC3CCOC(C)(C)C3)no2)c2ccccc12` (configuration not stated), the AC50 [1] is reported as 23.1 µM [falling, single point].
With `CC(=O)c1c(C)[nH]c(C(=O)Nc2nc(-c3ccc(-c4ccccc4)cc3)cs2)c1C` the cell number change was -48.2%, the AC50 [2] was 29.1 µM [falling, single point] and the AC50 [1] was 2.06 µM [rising, partial curve].
For `CCn1c(=O)c2cc(C(=O)N3CCOCC3)sc2c2ccccc21`, the cell number change was 5.92%, the AC50 [2] was 2.06 µM [rising, partial curve] and the AC50 [1] was 1.03 µM [rising, partial curve].
For `CC(=O)Nc1ccc(NC(=O)COc2ccc(-c3ccc(C#N)cc3)cc2)cc1`, the cell number change was 3.11% and the AC50 [1] was 6.51 µM [falling, single point].
In the case of `CCNC(=S)Nc1cc(OCC)c(NC(=O)c2ccco2)cc1OCC`, the cell number change is reported as 17.1% and the AC50 [1] is reported as 0.58 µM [rising, full curve, poor fit].
For `CN(C1CC(C)(C)NC(C)(C)C1)S(=O)(=O)CC12CCC(CC1=O)C2(C)C` (configuration not stated), the cell number change was -11.8% and the AC50 [1] was 0.651 µM [falling, full curve, poor fit].
`O=S(=O)(c1ccc2[nH]c3c(c2c1)CCCC3)N1CCCCC1` showed a cell number change of -20.3%.
For `c1ccc(-c2nccc(-c3ccc(-n4cnc5ccccc54)cc3)n2)cc1`, the cell number change was -65.2%, the AC50 [2] was 29.1 µM [falling, single point] and the AC50 [1] was 20.6 µM [falling, single point].
For `O=S(=O)(c1ccc(N2CCC(c3ccc(Cl)cc3)=N2)cc1)N(CCO)CCO`, the cell number change was -74.5%, the AC50 [2] was 29.1 µM [falling, single point] and the AC50 [1] was 29.1 µM [falling, partial curve].
For `CS(=O)(=O)N(CC(=O)Nc1ccccc1)c1cccc(Cl)c1Cl`, the cell number change was -24.6% and the AC50 [1] was 16.4 µM [falling, single point].
In the case of `COc1ccc(/C=N/n2cnnc2)cc1Cn1nc(C)c([N+](=O)[O-])c1C`, the cell number change is reported as 15.6%, the AC50 [2] is reported as 0.731 µM [falling, full curve] and the AC50 [1] is reported as 0.731 µM [falling, full curve].
Molecule `COc1cccc(C=Nc2ccccc2C(=O)Nc2ccccc2)c1O` has a cell number change of 2.43%.
With `CC1CCN(c2ccc([N+](=O)[O-])c(SCCO)c2)CC1` the cell number change was 17.2% and the AC50 [1] was 0.58 µM [rising, single point].
In the case of `CC(C)CN1C(=O)/C(=C/c2cccs2)NC1=S`, the cell number change is reported as -42.2%, the AC50 [2] is reported as 11.6 µM [falling, partial curve] and the AC50 [1] is reported as 11.6 µM [falling, partial curve].
